# Reference: US20140142045A1
# Chains of the proteins cited; added tags and fusions are not shown. Lines headed by an entry give the natural chain unless they say otherwise; changes in a name come on top.
# UniProt P25963: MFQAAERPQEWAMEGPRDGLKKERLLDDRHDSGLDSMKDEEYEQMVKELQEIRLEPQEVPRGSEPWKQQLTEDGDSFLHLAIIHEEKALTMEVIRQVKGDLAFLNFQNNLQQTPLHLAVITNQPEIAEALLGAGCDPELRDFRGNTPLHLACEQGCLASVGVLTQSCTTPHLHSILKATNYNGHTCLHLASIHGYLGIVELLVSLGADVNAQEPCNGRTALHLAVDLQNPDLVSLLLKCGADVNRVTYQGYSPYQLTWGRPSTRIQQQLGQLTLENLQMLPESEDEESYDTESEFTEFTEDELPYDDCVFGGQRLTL
# UniProt P53805: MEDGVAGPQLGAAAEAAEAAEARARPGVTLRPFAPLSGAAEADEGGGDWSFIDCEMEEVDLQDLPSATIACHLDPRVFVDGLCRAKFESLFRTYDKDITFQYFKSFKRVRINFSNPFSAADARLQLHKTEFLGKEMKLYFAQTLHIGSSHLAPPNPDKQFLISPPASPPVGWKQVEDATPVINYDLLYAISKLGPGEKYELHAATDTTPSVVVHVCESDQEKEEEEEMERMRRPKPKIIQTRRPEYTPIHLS
# Results are given in words; binding and its absence hold for the method and conditions named. Binding seen in cells or lysates may run through a third protein. Some results given as binding are weak or reduced against the parent protein; the word gives no strength.
# Assays:
# [1] = biological target: IKBα (KB inhibitor IKB, endogenous protein of HEK293 cells) (UniProt P25963); assay: co-immunoprecipitation from HEK293 lysate (anti-myc IP / anti-IKBα blot)
# [2] = biological target: IKBα (KB inhibitor IKB, endogenous protein of HEK293 cells) (UniProt P25963); assay: co-immunoprecipitation from HEK293 lysate (anti-IKBα IP / anti-myc blot and the reverse)
# [3] = biological target: IKBα (KB inhibitor IKB, endogenous protein of HEK293 cells) (UniProt P25963); assay: co-immunoprecipitation from HEK293 lysate (anti-myc IP / anti-IKBα blot and the reverse)
binding [1],binding [2],binding [3],Substance
binds,–,–,N-terminal 103 amino acids of RCAN1 (expressed from pcDNA3.1RCAN1-103mychis in HEK293 cells) (from UniProt P53805 56-158)
–,binds,binds,"RCAN1.1-myc (regulator of calcineurin 1, splicing isoform 1, expressed from pcDNA3.1(-)RCAN1.1-myc in HEK293 cells) (from UniProt P53805 56-252)"
